Drawing on article PMC3601965, “Conformational Change-Induced Repeat Domain Expansion Regulates Rap Phosphatase Quorum-Sensing Signal Receptors” (PLoS Biology, 2013), this text covers binding for one molecule.

No constants are given. Whether binding was seen depends on the method and setting.

The target of experiment [1] is T1, RapJ (B. subtilis strain 168), O34327.
T1 chain: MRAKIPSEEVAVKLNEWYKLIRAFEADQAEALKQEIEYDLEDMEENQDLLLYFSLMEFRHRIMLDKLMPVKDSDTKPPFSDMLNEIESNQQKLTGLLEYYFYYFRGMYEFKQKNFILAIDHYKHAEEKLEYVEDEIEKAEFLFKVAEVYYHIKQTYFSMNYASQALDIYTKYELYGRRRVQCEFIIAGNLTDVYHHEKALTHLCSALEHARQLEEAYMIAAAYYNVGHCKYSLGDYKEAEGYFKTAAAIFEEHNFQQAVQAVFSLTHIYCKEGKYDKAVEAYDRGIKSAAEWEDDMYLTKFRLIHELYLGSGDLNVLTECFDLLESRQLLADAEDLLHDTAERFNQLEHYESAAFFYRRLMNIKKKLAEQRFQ
The experiment is described as follows: AUC; sedimentation equilibrium, RapJ alone at 50 µM in 20 mM Tris-HCl pH 8.0, 150 mM KCl, 5 mM MgCl2, 5 mM DTT, 13,000 rpm; both purified. Particulars: remark: other sources report otherwise.

For experiment [2] the target is unchanged. The experiment is described as follows: AUC; sedimentation equilibrium, RapJ at 50 µM with PhrC at 500 µM in 20 mM Tris-HCl pH 8.0, 150 mM KCl, 5 mM MgCl2, 5 mM DTT, 13,000 rpm; both purified. Particulars: remark: other sources report otherwise.

B1: RapJ, O34327 1-373 (enzyme)
chain: MRAKIPSEEVAVKLNEWYKLIRAFEADQAEALKQEIEYDLEDMEENQDLLLYFSLMEFRHRIMLDKLMPVKDSDTKPPFSDMLNEIESNQQKLTGLLEYYFYYFRGMYEFKQKNFILAIDHYKHAEEKLEYVEDEIEKAEFLFKVAEVYYHIKQTYFSMNYASQALDIYTKYELYGRRRVQCEFIIAGNLTDVYHHEKALTHLCSALEHARQLEEAYMIAAAYYNVGHCKYSLGDYKEAEGYFKTAAAIFEEHNFQQAVQAVFSLTHIYCKEGKYDKAVEAYDRGIKSAAEWEDDMYLTKFRLIHELYLGSGDLNVLTECFDLLESRQLLADAEDLLHDTAERFNQLEHYESAAFFYRRLMNIKKKLAEQRFQ
As to B1, the binding result in experiment [1] and in experiment [2] was “no binding (tested: 50 µM)” each time.
